# Measurements reported in the supplement of paper PMC8551327.
# Where a name gives a salt, the structure may show the parent alone. This is one part of the list. Rule as the data show it: active = 1.25 or more and inactive = the rest. Repeats are few or missing, and single values can be far off.
# Tested on: Kcc2-LUC knock-in mouse primary cortical neurons (Kcc2 promoter reporter)
# Experiment: Kcc2 promoter-driven luciferase activity relative to vehicle control (fold of vehicle (ratio)); higher = stronger Kcc2 promoter activation (Kcc2 expression enhancer)
# Conditions: 100 nM; 48 h
row,SMILES,Kcc2 promoter-driven luciferase activity
1,O=C1C=CC(CC(=O)c2ccc3ccccc3c2)O1 (centres undefined) [2-(2-naphthalen-2-yl-2-oxoethyl)-2H-furan-5-one],inactive: 0.42
2,Nc1ncnc2c1ncn2[C@H]1C[C@H](O)[C@@H](CO)O1 [Deoxyadenosine],inactive: 1.12
3,CC1(C)C(=O)N2c3ccccc3C3(CC(N4C(=O)c5ccccc5C4=O)C(=O)O3)C2N1C(=O)OCc1ccccc1 (centres undefined),inactive: 0.76
4,"C=CC(=O)N1C/C(=C\c2ccccc2)C(=O)/C(=C/c2ccccc2)C1 [(3E,5E)-3,5-dibenzylidene-1-prop-2-enoylpiperidin-4-one]",inactive: 1.17
5,C[C@@H]1C[C@H]2OC(=O)[C@@]3(C)CCC[C@@](C)([C@@H]23)[C@@]1(O)CCc1ccoc1 [Marrubiin],inactive: 0.87
6,NCCCNCCCCNCCCN [Spermine Hydrochloride],inactive: 0.76
7,"COc1cc(-c2cc(=O)c3c(OC)c(OC)c(OC)c(OC)c3o2)cc(OC)c1OC [5,6,7,8,3',4',5'-heptamethoxyflavone]",inactive: 0.82
8,CNC1C(OC2C(OC3C(O)C(O)C(N=C(N)N)C(O)C3N=C(N)N)OC(C)C2(O)/C=N/NC(N)=S)OC(CO)C(O)C1O (centres undefined),inactive: 0.79
9,CC(=O)OCc1cc(=O)n(C)c2c3c4c(cc12)c(C)cc(=O)n4CO3 [Nybomycin Acetate],inactive: 0.84
10,CCCCCC/C=C\CCCCCCCCCc1cccc(OC)c1O [2-[(Z)-heptadec-10-enyl]-6-methoxyphenol],inactive: 0.69
11,CC(=O)NC1C(OCc2ccccc2)OC(CO)C(O)C1OC(C)C(=O)NC(C(=O)NC(CCC(=O)NCCCCNc1c2ccccc2nc2cccc([N+](=O)[O-])c12)C(N)=O)C(C)C (centres undefined),inactive: 1.18
12,Cc1ccc(C)c(NC(=O)C(=O)C(C(=O)c2ccc3ccccc3c2)C2OC(=O)c3ccccc32)c1 (centres undefined),inactive: 0.96
13,COc1ccccc1Cc1nc(-c2ccccc2)nn(C2OC(COC(C)=O)C(OC(C)=O)C(OC(C)=O)C2OC(C)=O)c1=S (centres undefined),inactive: 0.83
14,CCCCCCCCCCSCC(CO)NC(=O)/C=C/c1c(C)[nH]c(=O)[nH]c1=O (centres undefined),inactive: 1
15,"COc1ccc2c(c1[N+](=O)[O-])CC[C@@H]1[C@@H]2CC[C@]2(C)C(=O)CC[C@@H]12 [3-Methoxy-4-nitro-estra-1,3,5(10)-trien-17-one]",inactive: 0.93
16,CC(=O)C1=C(O)C=C2Oc3c(C(C)=O)c(O)c(C)c(O)c3C2(C)C1=O (stereo in doubt) [Usnic Acid],inactive: 0.92
17,CC(C)(C)CC(C)(C)NCC(O)COc1ccc(C(C)(C)c2ccc(OCC(O)CNC(C)(C)CC(C)(C)C)cc2)cc1 (centres undefined),inactive: 1.16
18,"O=C1c2cc(O)c(O)cc2OC(c2ccc(O)c(O)c2)C1O (centres undefined) [2-(3,4-Dihydroxyphenyl)-3,6,7-trihydroxy-chroman-4-one]",inactive: 0.52
19,CNc1nc(N(C)C)nc(N(C)C)n1 [Pentamethylmelamine Hydrochloride],inactive: 0.97
20,"CN1CCN(CCCN2c3ccccc3Sc3ccc(C(F)(F)F)cc32)CC1 [Phenothiazine, disuccinate]",inactive: 0.09

# Some of these compounds in order of SMILES length, rising:
row,SMILES,Kcc2 promoter-driven luciferase activity
6,NCCCNCCCCNCCCN [Spermine Hydrochloride],inactive: 0.76
18,"O=C1c2cc(O)c(O)cc2OC(c2ccc(O)c(O)c2)C1O (centres undefined) [2-(3,4-Dihydroxyphenyl)-3,6,7-trihydroxy-chroman-4-one]",inactive: 0.52
9,CC(=O)OCc1cc(=O)n(C)c2c3c4c(cc12)c(C)cc(=O)n4CO3 [Nybomycin Acetate],inactive: 0.84
12,Cc1ccc(C)c(NC(=O)C(=O)C(C(=O)c2ccc3ccccc3c2)C2OC(=O)c3ccccc32)c1 (centres undefined),inactive: 0.96
5,C[C@@H]1C[C@H]2OC(=O)[C@@]3(C)CCC[C@@](C)([C@@H]23)[C@@]1(O)CCc1ccoc1 [Marrubiin],inactive: 0.87
17,CC(C)(C)CC(C)(C)NCC(O)COc1ccc(C(C)(C)c2ccc(OCC(O)CNC(C)(C)CC(C)(C)C)cc2)cc1 (centres undefined),inactive: 1.16
13,COc1ccccc1Cc1nc(-c2ccccc2)nn(C2OC(COC(C)=O)C(OC(C)=O)C(OC(C)=O)C2OC(C)=O)c1=S (centres undefined),inactive: 0.83

# Next entries

row,SMILES,Kcc2 promoter-driven luciferase activity
1,COC(=O)C1(C)C=CC(=O)C2(C)C1C(O)C1OC3CC(c4ccoc4)C(C)=C3C1(C)C2CC(=O)O (centres undefined) [Nimbinic Acid],active: 1.29
2,CN(C)/N=N/c1[nH]cnc1C(N)=O [Dacarbazine],inactive: 0.775
3,O[C@H]1[C@H](O)[C@@H](O)[C@H](O)[C@@H](O)[C@H]1O [Inositol],inactive: 0.68
4,CN(C)CCN1C(=O)c2cccc3cc(N)cc(c23)C1=O [Amonafide],inactive: 0.84
5,CC(C)c1cccc(O)c(=O)c1 [Beta-Thujaplicin],inactive: 1.16
6,CC(C)CCCCCCCCCCCCC(=O)NCC(=O)N[C@@H]1[C@@H](O)[C@H](O)[C@@H](Nc2ncnc3nc[nH]c23)O[C@H]1[C@@H](O)CO [Septacidin],inactive: 0.79
7,"Oc1cc(-n2cccn2)c(O)cc1-n1cccn1 [2,5-Di(pyrazol-1-yl)benzene-1,4-diol]",inactive: 0.2
8,COc1cc([C@@H]2c3cc4c(cc3[C@@H](O[C@@H]3O[C@@H]5CO[C@@H](c6cccs6)O[C@H]5[C@H](O)[C@H]3O)[C@H]3COC(=O)[C@H]23)OCO4)cc(OC)c1O [Teniposide],inactive: 1.18
9,"CCN1/C(=C\C(C)=C\c2sc3ccccc3[n+]2CC)Sc2ccccc21 [Benzothiazolium,iodide]",inactive: 1.15
10,O=C(c1ccccc1)C(c1ccccc1)C1(O)C(=O)Nc2c(Cl)cc(Cl)cc21 (centres undefined),inactive: 1.22
11,"COc1ccc(-c2cc(=O)c3c(O)cc(O)cc3o2)cc1OC [5,7-Dihydroxy-3',4'-dimethoxyflavone]",inactive: 0.87
12,NC1(CCNC(=O)c2ccccc2)CCN(C(=O)c2ccccc2)CC1,inactive: 0.902
13,Oc1ccc2ccccc2c1N=Nc1cccc2ccccc12 [1-(1-Naphthylazo)-2-naphthol],inactive: 1
14,COc1cc2c(c(O)c1OC)-c1c(cc(OC)c(OC)c1OC)C[C@@H](C)[C@@H](C)C2 [Schisanhenol],inactive: 0.88
15,CCOC(=O)C1=C(C)NC(=S)NC1c1ccccc1 (centres undefined),inactive: 0.67
16,CN(C)c1ccc(/C=C2\CCc3ccccc3C2=O)cc1Br,inactive: 0.93
17,COc1ccc(CCN(C)CCCC(C#N)(c2ccc(OC)c(OC)c2)C(C)C)cc1OC (centres undefined) [Verapamil Hydrochloride],inactive: 1.11
18,N[C@@H](CSSC[C@H](N)C(=O)O)C(=O)O [Cystine],inactive: 1.13
19,CCCCCCCCCCCCCCCCCCN(C)C(COC)COP(=O)([O-])OCC[N+](C)(C)C (centres undefined),inactive: 0.88
